Reference: WO2008020596A2
These are yes or no findings as the source states them, for the method shown. In cells and extracts the contact can be indirect. Some results given as binding are weak or reduced against the parent protein; the word gives no strength.

The chains behind the UniProt entries cited, without tags or fusion partners. Where a name states a change or a piece, a line headed by the entry shows the natural chain unless it says otherwise.
UniProt P39748: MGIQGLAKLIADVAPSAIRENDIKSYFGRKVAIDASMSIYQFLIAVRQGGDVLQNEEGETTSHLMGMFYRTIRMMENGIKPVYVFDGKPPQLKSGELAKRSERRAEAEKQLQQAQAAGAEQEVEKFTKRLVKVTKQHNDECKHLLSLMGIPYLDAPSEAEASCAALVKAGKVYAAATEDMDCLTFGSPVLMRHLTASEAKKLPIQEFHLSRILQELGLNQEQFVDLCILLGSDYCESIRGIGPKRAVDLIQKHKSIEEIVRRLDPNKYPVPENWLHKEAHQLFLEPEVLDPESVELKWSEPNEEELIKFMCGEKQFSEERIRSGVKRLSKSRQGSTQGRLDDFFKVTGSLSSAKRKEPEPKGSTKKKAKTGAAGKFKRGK
UniProt P28340: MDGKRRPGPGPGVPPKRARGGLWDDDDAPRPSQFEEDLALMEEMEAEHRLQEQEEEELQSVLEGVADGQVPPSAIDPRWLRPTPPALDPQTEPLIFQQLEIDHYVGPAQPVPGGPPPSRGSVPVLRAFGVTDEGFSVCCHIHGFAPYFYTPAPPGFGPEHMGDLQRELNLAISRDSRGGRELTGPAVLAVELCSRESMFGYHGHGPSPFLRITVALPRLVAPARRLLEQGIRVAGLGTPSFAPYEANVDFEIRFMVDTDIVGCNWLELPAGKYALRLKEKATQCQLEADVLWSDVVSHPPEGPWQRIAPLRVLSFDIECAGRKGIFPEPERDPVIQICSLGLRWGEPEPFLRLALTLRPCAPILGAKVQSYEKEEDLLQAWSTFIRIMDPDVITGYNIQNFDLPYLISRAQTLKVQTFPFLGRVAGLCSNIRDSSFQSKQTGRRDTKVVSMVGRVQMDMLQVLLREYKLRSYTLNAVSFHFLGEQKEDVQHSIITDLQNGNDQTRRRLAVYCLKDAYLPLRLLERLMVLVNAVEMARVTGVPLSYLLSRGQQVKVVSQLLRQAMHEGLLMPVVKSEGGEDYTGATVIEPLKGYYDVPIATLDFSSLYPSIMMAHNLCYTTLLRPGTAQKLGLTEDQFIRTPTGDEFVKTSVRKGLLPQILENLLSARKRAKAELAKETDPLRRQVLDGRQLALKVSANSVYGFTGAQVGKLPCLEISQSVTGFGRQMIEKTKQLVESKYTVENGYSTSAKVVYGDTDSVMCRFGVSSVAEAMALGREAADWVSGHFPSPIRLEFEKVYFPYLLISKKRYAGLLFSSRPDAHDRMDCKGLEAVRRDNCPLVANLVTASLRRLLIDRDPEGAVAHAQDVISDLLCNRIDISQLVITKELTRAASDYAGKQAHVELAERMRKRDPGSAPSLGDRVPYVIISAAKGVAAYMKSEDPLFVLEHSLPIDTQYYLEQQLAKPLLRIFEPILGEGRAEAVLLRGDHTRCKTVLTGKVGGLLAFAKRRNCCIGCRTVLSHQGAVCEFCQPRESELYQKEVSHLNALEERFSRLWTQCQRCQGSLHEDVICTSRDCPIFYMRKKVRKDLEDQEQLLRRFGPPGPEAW
UniProt Q15004: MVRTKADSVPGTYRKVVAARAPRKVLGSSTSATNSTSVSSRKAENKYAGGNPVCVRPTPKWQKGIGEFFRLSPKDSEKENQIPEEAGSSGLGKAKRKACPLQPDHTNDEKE

Experiments:
[1] = target: FEN1 (flap endonuclease-1) (UniProt P39748); assay: co-immunoprecipitation from cancer cell lysate, MALDI-TOF identification, confirmed by immunoprecipitation (Fig. 12)
[2] = target: POLD1 (polymerase delta p125 subunit) (UniProt P28340); assay: as above
[3] = target: FEN1 (flap endonuclease-1) (UniProt P39748); assay: co-immunoprecipitation from cancer cell lysate with anti-KIAA0101 polyclonal antibody, MALDI-TOF identification, confirmed by immunoprecipitation
[4] = target: POLD1 (polymerase delta p125 subunit) (UniProt P28340); assay: as above

Measured: binding

KIAA0101 protein (p15PAF, PCNA-associated factor) (from UniProt Q15004 1-111)
binds: all assays above
